Laboratory results reported in article doi:10.1101/2023.09.22.558856.
No constants are given. Whether binding was seen depends on the method and setting. In cells and extracts the contact can be indirect. Some binding calls cover weakened binding; strength is not graded here.

Chains of the proteins cited; added tags and fusions are not shown.
UniProt P15381: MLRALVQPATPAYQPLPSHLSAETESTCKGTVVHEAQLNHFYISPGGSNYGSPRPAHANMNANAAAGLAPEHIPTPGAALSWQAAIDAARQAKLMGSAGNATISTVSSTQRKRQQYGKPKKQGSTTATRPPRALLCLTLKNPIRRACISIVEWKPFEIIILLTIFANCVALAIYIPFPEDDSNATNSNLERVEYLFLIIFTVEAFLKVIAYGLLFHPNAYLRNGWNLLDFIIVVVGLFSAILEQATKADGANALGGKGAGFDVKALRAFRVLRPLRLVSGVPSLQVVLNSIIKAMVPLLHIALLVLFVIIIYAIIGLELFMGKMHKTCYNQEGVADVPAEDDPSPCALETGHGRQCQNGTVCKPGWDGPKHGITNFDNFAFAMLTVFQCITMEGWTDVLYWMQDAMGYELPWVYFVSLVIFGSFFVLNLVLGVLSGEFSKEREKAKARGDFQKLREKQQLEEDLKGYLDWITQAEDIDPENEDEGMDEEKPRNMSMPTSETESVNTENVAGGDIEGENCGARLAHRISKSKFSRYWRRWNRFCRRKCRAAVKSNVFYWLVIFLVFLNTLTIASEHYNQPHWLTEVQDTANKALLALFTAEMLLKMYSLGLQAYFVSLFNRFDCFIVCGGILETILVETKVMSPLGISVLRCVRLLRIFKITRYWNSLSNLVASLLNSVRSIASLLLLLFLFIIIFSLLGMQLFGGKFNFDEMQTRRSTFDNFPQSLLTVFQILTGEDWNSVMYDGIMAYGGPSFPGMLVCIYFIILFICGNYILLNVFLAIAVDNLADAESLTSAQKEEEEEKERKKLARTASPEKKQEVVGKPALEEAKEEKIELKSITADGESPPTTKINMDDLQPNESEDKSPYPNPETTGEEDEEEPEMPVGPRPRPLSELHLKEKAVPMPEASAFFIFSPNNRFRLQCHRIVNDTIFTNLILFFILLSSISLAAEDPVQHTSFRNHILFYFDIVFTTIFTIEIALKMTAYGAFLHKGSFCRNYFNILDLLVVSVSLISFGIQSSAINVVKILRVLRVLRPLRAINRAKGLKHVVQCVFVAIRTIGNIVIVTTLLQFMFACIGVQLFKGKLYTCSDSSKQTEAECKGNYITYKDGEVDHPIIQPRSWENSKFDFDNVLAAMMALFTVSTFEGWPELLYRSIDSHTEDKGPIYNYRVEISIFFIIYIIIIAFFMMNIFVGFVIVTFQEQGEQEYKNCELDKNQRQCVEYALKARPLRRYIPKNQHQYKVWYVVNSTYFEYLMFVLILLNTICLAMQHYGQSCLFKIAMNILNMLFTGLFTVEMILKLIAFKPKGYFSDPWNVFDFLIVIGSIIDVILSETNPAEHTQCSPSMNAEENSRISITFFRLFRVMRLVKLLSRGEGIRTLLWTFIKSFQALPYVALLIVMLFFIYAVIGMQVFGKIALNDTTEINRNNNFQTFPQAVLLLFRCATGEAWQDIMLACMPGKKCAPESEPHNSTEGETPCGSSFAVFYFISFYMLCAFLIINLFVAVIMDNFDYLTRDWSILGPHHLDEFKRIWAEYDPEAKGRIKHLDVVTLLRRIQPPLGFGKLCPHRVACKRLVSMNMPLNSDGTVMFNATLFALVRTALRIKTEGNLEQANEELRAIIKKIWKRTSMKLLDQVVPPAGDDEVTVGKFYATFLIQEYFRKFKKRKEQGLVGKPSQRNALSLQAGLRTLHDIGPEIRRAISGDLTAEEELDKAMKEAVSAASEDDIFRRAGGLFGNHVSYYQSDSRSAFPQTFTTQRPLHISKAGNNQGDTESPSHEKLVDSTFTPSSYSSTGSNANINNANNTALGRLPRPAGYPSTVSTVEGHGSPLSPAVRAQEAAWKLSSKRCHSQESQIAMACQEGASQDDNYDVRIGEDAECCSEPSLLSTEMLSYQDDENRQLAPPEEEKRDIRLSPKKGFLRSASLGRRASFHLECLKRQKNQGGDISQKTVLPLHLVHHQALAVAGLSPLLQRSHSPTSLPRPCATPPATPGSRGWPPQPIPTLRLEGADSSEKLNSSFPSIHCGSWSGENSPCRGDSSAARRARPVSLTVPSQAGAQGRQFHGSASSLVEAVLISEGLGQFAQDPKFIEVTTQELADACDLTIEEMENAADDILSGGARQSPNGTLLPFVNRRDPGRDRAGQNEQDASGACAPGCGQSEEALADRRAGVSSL
UniProt Q5BKY1: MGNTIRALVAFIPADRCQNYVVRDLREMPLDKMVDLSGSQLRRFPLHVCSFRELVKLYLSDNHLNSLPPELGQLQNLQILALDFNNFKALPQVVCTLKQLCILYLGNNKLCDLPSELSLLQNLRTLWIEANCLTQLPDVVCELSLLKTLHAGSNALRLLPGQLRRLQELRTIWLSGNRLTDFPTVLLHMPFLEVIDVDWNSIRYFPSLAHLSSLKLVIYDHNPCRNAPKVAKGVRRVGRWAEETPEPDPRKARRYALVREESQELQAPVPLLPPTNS

Target: holo CaV1.2 with Venus on its carboxy terminus (rabbit) (UniProt P15381)
Test: FRET or BRET

In the case of “full-length human LRRC10 with C-terminal Cerulean (from UniProt Q5BKY1 1-277)”, the binding was “binds”.
